In article PMC8622252 one finds binding data, which are given here for one molecule.

These are yes or no findings as the source states them, for the method shown. In cells and extracts the contact can be indirect. Some results given as binding are weak or reduced against the parent protein; the word gives no strength. Sequences can lack the tags named with a protein.

This assay addresses T1, Flag-tagged bovine telomerase reverse transcriptase (bTERT) (bovine) (UniProt Q27ID4).
T1 sequence: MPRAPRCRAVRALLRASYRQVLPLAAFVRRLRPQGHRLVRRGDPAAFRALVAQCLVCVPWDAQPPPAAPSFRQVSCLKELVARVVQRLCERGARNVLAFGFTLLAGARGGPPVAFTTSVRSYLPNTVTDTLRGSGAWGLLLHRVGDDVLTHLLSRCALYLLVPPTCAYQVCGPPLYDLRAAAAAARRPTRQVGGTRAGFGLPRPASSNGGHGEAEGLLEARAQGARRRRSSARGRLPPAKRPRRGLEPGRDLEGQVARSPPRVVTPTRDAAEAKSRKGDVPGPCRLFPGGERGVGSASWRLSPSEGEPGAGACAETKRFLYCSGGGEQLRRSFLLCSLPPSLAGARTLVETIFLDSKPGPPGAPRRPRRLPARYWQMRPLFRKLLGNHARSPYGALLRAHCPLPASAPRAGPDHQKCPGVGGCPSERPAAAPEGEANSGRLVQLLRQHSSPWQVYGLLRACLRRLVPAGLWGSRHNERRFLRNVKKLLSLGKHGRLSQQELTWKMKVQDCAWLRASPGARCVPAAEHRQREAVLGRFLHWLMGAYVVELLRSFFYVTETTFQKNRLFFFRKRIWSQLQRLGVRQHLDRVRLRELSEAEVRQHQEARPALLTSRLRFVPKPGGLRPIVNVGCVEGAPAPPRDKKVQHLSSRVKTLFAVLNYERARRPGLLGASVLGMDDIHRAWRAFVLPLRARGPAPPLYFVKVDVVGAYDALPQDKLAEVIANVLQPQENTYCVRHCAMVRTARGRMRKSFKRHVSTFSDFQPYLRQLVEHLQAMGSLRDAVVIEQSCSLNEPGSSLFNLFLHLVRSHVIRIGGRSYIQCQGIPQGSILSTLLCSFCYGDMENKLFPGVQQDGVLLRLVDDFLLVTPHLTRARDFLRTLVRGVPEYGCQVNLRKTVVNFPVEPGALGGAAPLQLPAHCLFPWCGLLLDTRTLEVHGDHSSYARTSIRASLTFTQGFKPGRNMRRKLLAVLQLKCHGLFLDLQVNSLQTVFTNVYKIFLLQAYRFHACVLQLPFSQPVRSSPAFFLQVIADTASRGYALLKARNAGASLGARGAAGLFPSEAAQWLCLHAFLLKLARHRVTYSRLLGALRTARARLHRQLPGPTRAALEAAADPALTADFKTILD
Nature of the assay: co-IP; Flag-bTERT and HA-PINX1 transiently co-expressed in HEK-293T cells; whole-cell extracts in IP Lysis Buffer incubated overnight at 4 °C with FLAG mAb or control IgG, captured on Protein A/G agarose, Western blot (legend: Flag-bTERT or HA-PINX1 immunoprecipitated).

B1: HA-tagged PINX1 (protein, UniProt F6PXL9 1-309)
chain: MSMLAERRRKQKWAVDPRNTAWSNDDSKFGQRMLEKMGWSKGKGLGAQEQGATDHIKVQVKNNHLGLGATINNEDNWIAHQDDFNQLLAQLNTCHGQETADSPDNKEKKSFSLEEKSKISKNRVHYMKFTKGKDLSSRSQTDLDCIFGKRQKRTPEDHPSLSATEETDTSTTTTSAFTIHEYFARRMAERKSKAQGMAAGPEASETPVERKRGKKRKKEAKDKNVENHIQPKAKKKRNQVECELGDPRWDENPGAPAEAGEGHVGPLDNQDSPPKPKKRKEKEKGAKQVEAAVDSTLDETPVKKKKGSK
With B1, the binding result is recorded as “binds”.
